Test results from publication PMC10201418.
Results are given in words; binding and its absence hold for the method and conditions named. For some of these results: In cells and extracts the contact can be indirect. Some binding calls cover weakened binding; strength is not graded here. Sequences can lack the tags named with a protein.

Chains of the proteins cited; added tags and fusions are not shown.
UniProt P68400: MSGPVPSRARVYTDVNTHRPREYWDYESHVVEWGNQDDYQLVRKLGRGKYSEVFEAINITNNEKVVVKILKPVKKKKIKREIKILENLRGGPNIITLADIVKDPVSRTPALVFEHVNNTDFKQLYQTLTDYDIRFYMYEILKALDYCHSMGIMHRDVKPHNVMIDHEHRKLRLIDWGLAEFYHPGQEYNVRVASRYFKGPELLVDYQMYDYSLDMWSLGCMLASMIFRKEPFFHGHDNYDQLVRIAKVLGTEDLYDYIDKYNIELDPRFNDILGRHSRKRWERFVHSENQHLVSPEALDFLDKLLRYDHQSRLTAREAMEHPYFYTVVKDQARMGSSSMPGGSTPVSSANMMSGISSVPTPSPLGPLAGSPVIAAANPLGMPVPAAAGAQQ
UniProt P67870: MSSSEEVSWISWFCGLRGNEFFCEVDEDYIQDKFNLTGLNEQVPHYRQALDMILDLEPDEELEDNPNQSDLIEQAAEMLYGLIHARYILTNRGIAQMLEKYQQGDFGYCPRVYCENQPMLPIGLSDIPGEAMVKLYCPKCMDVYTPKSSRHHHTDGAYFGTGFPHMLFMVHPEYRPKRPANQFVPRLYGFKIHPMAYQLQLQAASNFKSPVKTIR

How the values were obtained:
[1] = target: T1, IRF1 tagged with a C-terminal FLAG epitope (IRF1-FLAG) (UniProt P10914); assay: co-IP
T1 sequence: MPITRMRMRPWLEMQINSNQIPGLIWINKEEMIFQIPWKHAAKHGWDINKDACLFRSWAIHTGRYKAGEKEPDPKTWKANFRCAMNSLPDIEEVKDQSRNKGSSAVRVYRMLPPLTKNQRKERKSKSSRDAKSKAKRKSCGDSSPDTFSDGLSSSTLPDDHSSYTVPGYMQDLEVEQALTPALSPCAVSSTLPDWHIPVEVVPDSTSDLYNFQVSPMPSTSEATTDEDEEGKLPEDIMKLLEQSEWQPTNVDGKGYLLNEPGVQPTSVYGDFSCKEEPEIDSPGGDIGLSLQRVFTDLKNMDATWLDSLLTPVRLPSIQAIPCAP

[2] = target: T1, IRF1 tagged with a C-terminal FLAG epitope (IRF1-FLAG); assay: pull-down; in vitro pull-down with purified IRF1-FLAG and recombinant human CSNK2B; who was held and the conditions are not stated; both purified

| binding [1] | binding [2] | Substance |
| --- | --- | --- |
| binds |  | CSNK2A1, catalytic alpha-subunit of casein kinase 2 (endogenous) (from UniProt P68400 1-391) |
| binds |  | CSNK2A2, catalytic alpha-subunit of casein kinase 2 (endogenous) (from UniProt P19784 1-350) |
| binds |  | CSNK2B, regulatory subunit of casein kinase 2 (endogenous) (from UniProt P67870 1-215) |
|  | binds | recombinant human CSNK2B (rCSNK2B) (from UniProt P67870 1-215) |
